This passage reports binding results from paper PMC6983240.

Amino acid sequences for entries named in this document (tags omitted). Residues count along the entry.
UniProt P48721, residues 47-679: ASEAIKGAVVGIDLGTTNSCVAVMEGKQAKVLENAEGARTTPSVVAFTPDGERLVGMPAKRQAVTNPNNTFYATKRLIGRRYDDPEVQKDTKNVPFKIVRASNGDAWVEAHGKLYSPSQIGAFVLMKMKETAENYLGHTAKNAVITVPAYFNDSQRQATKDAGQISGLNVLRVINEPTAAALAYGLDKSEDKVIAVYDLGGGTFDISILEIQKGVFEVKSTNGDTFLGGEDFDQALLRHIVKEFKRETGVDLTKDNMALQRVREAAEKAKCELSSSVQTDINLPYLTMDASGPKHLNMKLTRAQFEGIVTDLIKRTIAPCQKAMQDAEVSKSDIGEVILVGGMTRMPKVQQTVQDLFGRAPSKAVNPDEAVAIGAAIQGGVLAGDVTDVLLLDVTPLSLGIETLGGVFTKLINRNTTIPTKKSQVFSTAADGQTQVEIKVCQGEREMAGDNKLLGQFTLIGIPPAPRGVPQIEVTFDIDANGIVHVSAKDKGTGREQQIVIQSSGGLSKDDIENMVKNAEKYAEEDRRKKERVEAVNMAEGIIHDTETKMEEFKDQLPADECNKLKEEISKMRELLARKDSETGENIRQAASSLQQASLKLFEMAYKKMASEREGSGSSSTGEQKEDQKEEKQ
UniProt P03889: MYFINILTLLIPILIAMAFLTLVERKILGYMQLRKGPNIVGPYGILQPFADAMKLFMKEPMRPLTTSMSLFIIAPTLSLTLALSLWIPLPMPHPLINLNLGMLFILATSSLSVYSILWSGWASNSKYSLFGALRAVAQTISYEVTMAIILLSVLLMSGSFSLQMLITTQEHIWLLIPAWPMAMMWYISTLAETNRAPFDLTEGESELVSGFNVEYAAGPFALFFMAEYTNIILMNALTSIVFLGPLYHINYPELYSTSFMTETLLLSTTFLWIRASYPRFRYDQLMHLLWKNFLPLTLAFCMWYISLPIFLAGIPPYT

These are yes or no findings as the source states them, for the method shown. Binding seen in cells or lysates may run through a third protein. Some results given as binding are weak or reduced against the parent protein; the word gives no strength. For part of these data: Tags and fused reporters may be left off the sequences shown.

Assay [1] concerns the target T1, Flag-DJ-1 (from plasmid pFlag-DJ-1) (UniProt O88767).
T1 sequence: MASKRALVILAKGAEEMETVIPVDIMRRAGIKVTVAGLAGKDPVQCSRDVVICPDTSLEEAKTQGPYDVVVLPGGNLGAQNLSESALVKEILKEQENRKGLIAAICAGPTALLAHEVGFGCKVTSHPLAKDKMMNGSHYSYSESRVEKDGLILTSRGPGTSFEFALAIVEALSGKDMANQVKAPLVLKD
The experiment in a line: co-IP; H9c2 mitochondrial lysates (H/R, HPC + H/R, pFlag-DJ-1 + H/R, each with or without LV-shGrp75 knock-down); IP with anti-DJ-1 antibody or IgG, blot with anti-NDUFA4 or anti-ND1.

Assay [2] has as its target T2, DJ-1 (rat (endogenous in H9c2)) (UniProt O88767).
T2 sequence: T1 sequence
Described as above.

Assay [3] deals with glucose-regulated protein 75 (Grp75) (rat (endogenous in H9c2)) (UniProt P48721). The assay is described as follows: co-IP; H9c2 whole-cell lysates (control, H/R, HPC + H/R); IP with anti-Grp75 antibody or IgG, blot with anti-DJ-1; lysis buffer 50 mM Tris HCl, 150 mM NaCl, 1 mM EDTA, 1% Triton X-100; 4 °C overnight.

Regarding “ND1 subunit of mitochondrial complex I (from UniProt P03889 1-318)”, the binding result in assay [1] and in assay [2] was “binds” throughout.

B1: DJ-1 (protein, UniProt O88767 1-189)
chain: T1 sequence
Take B1: the binding result in assay [3] is given as “binds”.
